This continues a long series; more values of the same kind are listed elsewhere.
System: cancer cell lines from the cancer cell line encyclopedia (CCLE)
Test: Cell line profiling (CLiP) proliferation experiment
Assay type: cell-based
Parameters: ACTIVITY_AREA: scale not given here; AMAX: unit not given here
Description: Compound profiling experiment and data analysis was performed as previously described. Data was imported and plotted using the Tibco Spotfire DXP application. Lines were categorized as sensitive, intermediate and refractory as follows: Amax<-40 & Inflection Point <2 ~ Sensitive, Amax>-20 & Inflection Point >10 ~ Refractory, all else were called Intermediate. Cancer Cell line HG-U133 Plus 2 data was processed and normalized as described. […] Five sets of refractory cell lines were generated from the pool of refractory cell lines trying to match the lineage composition of the set of sensitive cell lines. The limma package was used as previously described to perform the statistical comparison.

[1] = TOV-21G (ovary, clear_cell_carcinoma)
[2] = TOV-112D (ovary, endometrioid_carcinoma)
[3] = TT2609-C02 (thyroid, follicular_carcinoma)
[4] = U266B1 (haematopoietic_and_lymphoid_tissue)
[5] = U266B1 (haematopoietic_and_lymphoid_tissue, plasma_cell_myeloma)
[6] = U-118 MG (central_nervous_system, astrocytoma)
[7] = U-251 MG (central_nervous_system)
[8] = U-251 MG (central_nervous_system, astrocytoma)
[9] = U-937 (haematopoietic_and_lymphoid_tissue)
[10] = U-937 (haematopoietic_and_lymphoid_tissue, malignant_histiocytosis)
[11] = WSU-DLCL2 (haematopoietic_and_lymphoid_tissue)
[12] = Z-138 (haematopoietic_and_lymphoid_tissue)
[13] = cell line 697, haematopoietic_and_lymphoid_tissue, acute_lymphoblastic_leukaemia
[14] = cell line 1321N1 (central_nervous_system, astrocytoma)
[15] = cell line 1321N1, central_nervous_system, astrocytoma
[16] = cell line A4/Fuk, haematopoietic_and_lymphoid_tissue, diffuse_large_B_cell_lymphoma
[17] = cell line A172, central_nervous_system, astrocytoma_Grade_IV
[18] = cell line A549, lung, adenocarcinoma
[19] = cell line A2780, ovary, adenocarcinoma
[20] = cell line A-253, salivary_gland, mucoepidermoid_carcinoma
[21] = cell line A-498, kidney, renal_cell_carcinoma
[22] = cell line ABC-1, lung, non_small_cell_carcinoma
[23] = cell line ACC-MESO-1, pleura, NS
[24] = cell line ACHN, kidney, renal_cell_carcinoma

In the case of `CC(C)[C@@]12C[C@@H](O)[C@@](C)(O1)[C@@H]1CC[C@@H](C)[C@H]1[C@@H]2OC(=O)/C=C/c1ccccc1` [Englerin B], the ACTIVITY_AREA [1] was 52.76, the AMAX [1] was -60.59 and the RESPONSE [1] was “INTERMEDIATE”. For the same molecule, the ACTIVITY_AREA (TOV-112D (ovary)) was 27.12, the AMAX (TOV-112D (ovary)) was -74.35 and the RESPONSE (TOV-112D (ovary)) was “INTERMEDIATE”. The ACTIVITY_AREA [2] was 27.12, the AMAX [2] was -74.35 and the RESPONSE [2] was “INTERMEDIATE”. The ACTIVITY_AREA [3] was 22.23, the AMAX [3] was -58.54 and the RESPONSE [3] was “INTERMEDIATE”. The ACTIVITY_AREA (TT2609-C02 cells) was 22.23, the AMAX (TT2609-C02 cells) was -58.54 and the RESPONSE (TT2609-C02 cells) was “INTERMEDIATE”. The ACTIVITY_AREA [4] was 13.19, the AMAX [4] was -42.3 and the RESPONSE [4] was “INTERMEDIATE”. For the same molecule, the ACTIVITY_AREA [5] was 13.19, the AMAX [5] was -42.3 and the RESPONSE [5] was “INTERMEDIATE”. The ACTIVITY_AREA [6] was 17.9, the AMAX [6] was -38.77 and the RESPONSE [6] was “INTERMEDIATE”. The ACTIVITY_AREA [7] was 34.78, the AMAX [7] was -31.64 and the RESPONSE [7] was “INTERMEDIATE”. The ACTIVITY_AREA [8] was 34.78, the AMAX [8] was -31.64 and the RESPONSE [8] was “INTERMEDIATE”. For the same molecule, the ACTIVITY_AREA [9] was 49.13, the AMAX [9] was -82.46 and the RESPONSE [9] was “INTERMEDIATE”. The ACTIVITY_AREA [10] was 49.13, the AMAX [10] was -82.46 and the RESPONSE [10] was “INTERMEDIATE”. For the same molecule, the ACTIVITY_AREA (UACC-62 (skin)) was 41.15, the AMAX (UACC-62 (skin)) was -44.29 and the RESPONSE (UACC-62 (skin)) was “INTERMEDIATE”. For the same molecule, the ACTIVITY_AREA (UACC-257 (skin)) was 31.33, the AMAX (UACC-257 (skin)) was -80.26 and the RESPONSE (UACC-257 (skin)) was “INTERMEDIATE”. For the same molecule, the ACTIVITY_AREA (UM-UC-3 (urinary_tract)) was 37.41, the AMAX (UM-UC-3 (urinary_tract)) was -54.71 and the RESPONSE (UM-UC-3 (urinary_tract)) was “INTERMEDIATE”. The ACTIVITY_AREA (VM-CUB1 (urinary_tract)) was 96.55, the AMAX (VM-CUB1 (urinary_tract)) was -58.31 and the RESPONSE (VM-CUB1 (urinary_tract)) was “INTERMEDIATE”. For the same molecule, the ACTIVITY_AREA (VMRC-RCW (kidney)) was 10.22, the AMAX (VMRC-RCW (kidney)) was -25.65 and the RESPONSE (VMRC-RCW (kidney)) was “INTERMEDIATE”. For the same molecule, the ACTIVITY_AREA (VMRC-RCZ (kidney)) was 26.25, the AMAX (VMRC-RCZ (kidney)) was -46.92 and the RESPONSE (VMRC-RCZ (kidney)) was “INTERMEDIATE”. For the same molecule, the ACTIVITY_AREA (WM1799 (skin)) was 44.8, the AMAX (WM1799 (skin)) was -38.05 and the RESPONSE (WM1799 (skin)) was “INTERMEDIATE”. For the same molecule, the ACTIVITY_AREA (WM-88 (skin)) was 55.16, the AMAX (WM-88 (skin)) was -34.98 and the RESPONSE (WM-88 (skin)) was “INTERMEDIATE”. The ACTIVITY_AREA (WM-115 (skin)) was 73.29, the AMAX (WM-115 (skin)) was -15.29 and the RESPONSE (WM-115 (skin)) was “REFRACTORY”. For the same molecule, the ACTIVITY_AREA (WM-266-4 (skin)) was 31.57, the AMAX (WM-266-4 (skin)) was -38.36 and the RESPONSE (WM-266-4 (skin)) was “INTERMEDIATE”. For the same molecule, the ACTIVITY_AREA (WM-793 (skin)) was 26.94, the AMAX (WM-793 (skin)) was -46.79 and the RESPONSE (WM-793 (skin)) was “INTERMEDIATE”. The ACTIVITY_AREA (WM-983B (skin)) was 63.66, the AMAX (WM-983B (skin)) was -43.12 and the RESPONSE (WM-983B (skin)) was “INTERMEDIATE”. The ACTIVITY_AREA (WS1 (skin)) was 21.77, the AMAX (WS1 (skin)) was -26.6 and the RESPONSE (WS1 (skin)) was “INTERMEDIATE”. For the same molecule, the ACTIVITY_AREA [11] was 47.3, the AMAX [11] was -92.11 and the RESPONSE [11] was “INTERMEDIATE”. The ACTIVITY_AREA (YAPC (pancreas)) was 25.5, the AMAX (YAPC (pancreas)) was -44.67 and the RESPONSE (YAPC (pancreas)) was “INTERMEDIATE”. For the same molecule, the ACTIVITY_AREA (YKG1 (central_nervous_system)) was 26.45, the AMAX (YKG1 (central_nervous_system)) was -20.02 and the RESPONSE (YKG1 (central_nervous_system)) was “INTERMEDIATE”. For the same molecule, the ACTIVITY_AREA (YMB-1 (breast)) was 29.44, the AMAX (YMB-1 (breast)) was -63.02 and the RESPONSE (YMB-1 (breast)) was “INTERMEDIATE”. For the same molecule, the ACTIVITY_AREA [12] was 90.79, the AMAX [12] was -65.74 and the RESPONSE [12] was “INTERMEDIATE”. The ACTIVITY_AREA (ZR-75-1 (breast)) was 42.06, the AMAX (ZR-75-1 (breast)) was -53.16 and the RESPONSE (ZR-75-1 (breast)) was “INTERMEDIATE”. The ACTIVITY_AREA (ZR-75-30 (breast)) was 30.23, the AMAX (ZR-75-30 (breast)) was -46.93 and the RESPONSE (ZR-75-30 (breast)) was “INTERMEDIATE”. The ACTIVITY_AREA (cell line 8-MG-BA) was 36.6, the AMAX (cell line 8-MG-BA) was -52.73 and the RESPONSE (cell line 8-MG-BA) was “INTERMEDIATE”. The ACTIVITY_AREA (cell line 22Rv1, prostate, NS) was 30.61, the AMAX (cell line 22Rv1, prostate, NS) was -53.2 and the RESPONSE (cell line 22Rv1, prostate, NS) was “INTERMEDIATE”. For the same molecule, the ACTIVITY_AREA (cell line 59M) was 26.55, the AMAX (cell line 59M) was -38.54 and the RESPONSE (cell line 59M) was “INTERMEDIATE”. The ACTIVITY_AREA [13] was 47.18, the AMAX [13] was -80.98 and the RESPONSE [13] was “INTERMEDIATE”. The ACTIVITY_AREA (cell line 786-O) was 46.1, the AMAX (cell line 786-O) was -38.05 and the RESPONSE (cell line 786-O) was “INTERMEDIATE”. The ACTIVITY_AREA [14] was 44.21, the AMAX [14] was -46.66 and the RESPONSE [14] was “INTERMEDIATE”. The ACTIVITY_AREA [15] was 44.21, the AMAX [15] was -46.66 and the RESPONSE [15] was “INTERMEDIATE”. For the same molecule, the ACTIVITY_AREA (cell line 23132/87) was 152.84, the AMAX (cell line 23132/87) was -72.44 and the RESPONSE (cell line 23132/87) was “INTERMEDIATE”. For the same molecule, the ACTIVITY_AREA [16] was 67.88, the AMAX [16] was -69.84 and the RESPONSE [16] was “INTERMEDIATE”. For the same molecule, the ACTIVITY_AREA (cell line A101D, skin, NS) was 15.59, the AMAX (cell line A101D, skin, NS) was -37.08 and the RESPONSE (cell line A101D, skin, NS) was “INTERMEDIATE”. The ACTIVITY_AREA (cell line A172) was 7.84, the AMAX (cell line A172) was 1.3 and the RESPONSE (cell line A172) was “REFRACTORY”. For the same molecule, the ACTIVITY_AREA [17] was 7.84, the AMAX [17] was 1.3 and the RESPONSE [17] was “REFRACTORY”. The ACTIVITY_AREA [18] was 37.23, the AMAX [18] was -58.53 and the RESPONSE [18] was “INTERMEDIATE”. For the same molecule, the ACTIVITY_AREA (cell line A2058, skin, NS) was 56.89, the AMAX (cell line A2058, skin, NS) was -70.85 and the RESPONSE (cell line A2058, skin, NS) was “INTERMEDIATE”. The ACTIVITY_AREA [19] was 23.16, the AMAX [19] was -68.66 and the RESPONSE [19] was “INTERMEDIATE”. The ACTIVITY_AREA (cell line A-204) was 22.22, the AMAX (cell line A-204) was -45.81 and the RESPONSE (cell line A-204) was “INTERMEDIATE”. The ACTIVITY_AREA [20] was 47.22, the AMAX [20] was -88.59 and the RESPONSE [20] was “INTERMEDIATE”. For the same molecule, the ACTIVITY_AREA (cell line A-375, skin, NS) was 20.24, the AMAX (cell line A-375, skin, NS) was -2.69 and the RESPONSE (cell line A-375, skin, NS) was “REFRACTORY”. For the same molecule, the ACTIVITY_AREA (cell line A-498) was 91, the AMAX (cell line A-498) was -64.89 and the RESPONSE (cell line A-498) was “INTERMEDIATE”. For the same molecule, the ACTIVITY_AREA [21] was 91, the AMAX [21] was -64.89 and the RESPONSE [21] was “INTERMEDIATE”. For the same molecule, the ACTIVITY_AREA (cell line A-673, bone, NS) was 9.6, the AMAX (cell line A-673, bone, NS) was -13.83 and the RESPONSE (cell line A-673, bone, NS) was “REFRACTORY”. The ACTIVITY_AREA [22] was 13.47, the AMAX [22] was -42.78 and the RESPONSE [22] was “INTERMEDIATE”. For the same molecule, the ACTIVITY_AREA [23] was 116.48, the AMAX [23] was -48.31 and the RESPONSE [23] was “INTERMEDIATE”. The ACTIVITY_AREA [24] was 59.56, the AMAX [24] was -29.85 and the RESPONSE [24] was “INTERMEDIATE”. The ACTIVITY_AREA (cell line AGS) was 127.27, the AMAX (cell line AGS) was -69.99 and the RESPONSE (cell line AGS) was “INTERMEDIATE”. For the same molecule, the ACTIVITY_AREA (cell line AGS, stomach, adenocarcinoma) was 127.27.

Reference: article PMC4476799, “Englerin A Agonizes the TRPC4/C5 Cation Channels to Inhibit Tumor Cell Line Proliferation” (PLoS ONE, 2015)
